Measurements: paper PMC8016126
These are yes or no findings as the source states them, for the method shown. Some entries that bind do so weakly or less than the wild type.

By UniProt entry, the sequences of proteins in these tests, tags left out. Where a name states a change or a piece, a line headed by the entry shows the natural chain unless it says otherwise.
UniProt Q9UI95: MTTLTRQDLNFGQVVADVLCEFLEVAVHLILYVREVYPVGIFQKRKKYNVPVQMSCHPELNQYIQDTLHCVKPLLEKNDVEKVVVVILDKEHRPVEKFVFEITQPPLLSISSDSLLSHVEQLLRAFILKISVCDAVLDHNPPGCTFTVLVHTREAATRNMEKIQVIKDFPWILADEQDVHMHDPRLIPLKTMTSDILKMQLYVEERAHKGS

Target: polyhistidine-tagged REV7 (R124A) (UniProt Q9UI95)
Test: co-purification (co-expression, metal affinity chromatography); His-tagged REV7(R124A) and REV3(1847-1898) co-expressed in E. coli BL21 STAR (DE3); complex purified by metal affinity chromatography by the His tag on REV7

binding: binds
B1: truncated REV3 (residues 1847-1898) (domain or fragment, UniProt O60673 1847-1898)
chain: MLTPTPDSSPRSTSSPSQSKNGSFTPRTANILKPLMSPPSREEIMATLLDHD
